# Among all 340,000 compounds or so, about 170 (0.05%) were called active. Inconclusive results, whose numbers are uncertain, are shown with a selection of clear calls. Calls come from the whole dose curve; as a rule, active = well fitted inhibition curve with a large enough effect in the signal ratio, with a control signal flat (not every such curve was filed as active); inconclusive = small, poorly fitted or top-dose-only effect, or effect the other way, or a change in a side signal; inactive = flat fitted curve, though single readings scatter; the % refers to the signal ratio. Potencies beside an inconclusive call are fits to weak or partial responses and may not hold up.
# Assay: qHTS Assay to Find Inhibitors of Chronic Active B-Cell Receptor Signaling;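 for activity change, negative = inhibition: plate controls were basal doxycycline-induced cells for no effect and cells given 10 µM MG132 for full effect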
# Settings: ABC-DLBCL IkBa-CBG/CBR reporter, luminescence ratio (green luciferase fused to IkBa over red control in TMD8 lymphoma cells), 4 h; activity change, negative = inhibition: at 46.1 µM (top of the series) unless noted
# Outline: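 Compounds up to 46 uM were incubated four hours with TMD8 cells whose green CBG68 luciferase is fused to IkappaBalpha; red CBR luminescence normalised the signal, and concentration-effect curves were fitted to fusion, red and ratio data.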
# Potency is the fitted concentration of half-maximal effect.
Compound,"activity change, negative = inhibition",Potency
CCOc1ccc(-n2c(Cc3ccccc3)nnc2SCc2c(C)noc2C)cc1,inactive,–
C#CCOCCOCCOCCNc1nc(N2CCN(C(=O)[C@H](CCCCN)n3cc(CN)nn3)CC2)nc(N2CCN(C(=O)[C@H](CCCN=C(N)N)n3cc(C(N)[C@H](C)CC)nn3)CC2)n1 (stereo not given in full),inconclusive: 3.81%,–
CCOc1ccc(C(=O)NCC(=O)NCC(c2cccs2)N2CCOCC2)cc1 (stereo not given),inactive,–
O=C(c1cnn2cccnc12)N1CCN(c2ccccc2)CC1,inconclusive: 10.4%,–
Nn1c(SCc2cn3ccsc3n2)nnc1-c1ccncc1,inconclusive: -3.79%,–
O=C(NC1CC1)C1CCN(c2ccc(S(=O)(=O)N3CCOCC3)cc2)CC1,inconclusive: -5.07%,–
COc1ccc(NC(=O)C23CCC(C)(C(=O)O2)C3(C)C)cc1 (stereo not given),inactive,–
COc1ccc(-c2cn3nc(N4CCCC(C(=O)NCc5ccc(Cl)cc5)C4)sc3n2)cc1 (stereo not given),inconclusive: 14.6%,–
Cc1occc1C(=O)NNC(=O)CN1C(=O)NC(C)(c2ccccc2)C1=O (stereo not given),inconclusive: 0.514%,–
COC(=O)COc1ccc2c(-c3ccc(OC)cc3)cc(=O)oc2c1,inconclusive: 7.36%,–
CCC1=[N+](CC(=O)c2ccc(C)cc2)CCn2cccc21,inactive,–
Cc1c(NC(=O)COC(=O)Cc2ccc(F)cc2)c(=O)n(-c2ccccc2)n1C,inactive,–
Cc1ccc(CN2C(=O)c3ccccc3Sc3ccc(C(=O)NCCN4CCOCC4)cc32)cc1,–,"inconclusive: 35.5 µM [falling, single point]"
CCOC(=O)Cn1nc(/C=C/c2ccccc2)ccc1=O,inconclusive: 10.5%,–
Fc1cccc(CNc2ncnc3ccc(-c4ccoc4)cc23)c1,inactive,–
CCN1C(=O)[C@H]2[C@@H](c3ccc(C)cc3)N3C(=O)N(c4cccc(Cl)c4)C(=O)[C@@]3(Cc3ccc(Cl)cc3)[C@H]2C1=O,inconclusive: 5.43%,–
COC(=O)c1sccc1NC(=O)c1cccc(OC)c1,inconclusive: -2.93%,–
COc1cc(/C=C2\SC(N3CCC(C)CC3)=NC2=O)ccc1O,–,"inconclusive: 12.6 µM [falling, partial curve, poor fit]"
O=C(Nc1ccc(N2CCCC(O)C2)cc1)c1snc2c(=O)[nH]cnc12 (stereo not given),–,"inconclusive: 4.61 µM [falling, full curve]"
CCc1cc(=O)oc2cc(C)cc(OC(=O)c3ccco3)c12,inconclusive: -16.9%,–

# A different layout for 3 compounds above:
Compound | activity change, negative = inhibition | Potency
CCOc1ccc(C(=O)NCC(=O)NCC(c2cccs2)N2CCOCC2)cc1 (stereo not given) | inactive | –
O=C(c1cnn2cccnc12)N1CCN(c2ccccc2)CC1 | inconclusive: 10.4% | –
COc1ccc(-c2cn3nc(N4CCCC(C(=O)NCc5ccc(Cl)cc5)C4)sc3n2)cc1 (stereo not given) | inconclusive: 14.6% | –

# (further entries)

Compound,"activity change, negative = inhibition",Potency
Nn1c(Cc2ccccc2)n[nH]c1=S,inconclusive: 3.36%,–
COc1cccc(-c2[nH]nc3c2C(c2ccsc2)C(C#N)=C(N)O3)c1 (stereo not given),inconclusive: 0.557%,–
Cn1ccnc1C(=O)c1ccc(NN)c([N+](=O)[O-])c1,inconclusive: -20%,–
NS(=O)(=O)c1ccc(NC(=O)/C=C/c2ccc(S(=O)(=O)NCc3ccco3)cc2)cc1,inactive,–
Cc1ccc(-n2nc3c(n2)/C(=N/O)CC/C3=N\O)cc1,–,"inconclusive: 29.1 µM [falling, single point]"
O=C(c1ccco1)N1CCCN(C(=O)c2ccco2)CC1,inactive,–
CCOc1cccc(C2C(C(=O)c3ccco3)=C(O)C(=O)N2c2nnc(C)s2)c1 (stereo not given),inconclusive: 2.98%,–
Cc1c(C(=O)N(CCc2ccccc2)Cc2ccccc2)cccc1[N+](=O)[O-],inconclusive: 3.93%,–
O=C(CN1C(=O)c2ccccc2C1=O)OCc1nc2ccsc2c(=O)[nH]1,inconclusive: 3.23%,–
O=S(=O)(c1ccccc1)[C@@]1(c2ccc(Br)cc2)C[C@@H]2ON=C(c3ccccc3)[C@@H]2C1,inactive,–
COc1cccc(CN(C)C(=O)c2cc(-c3cccs3)nc3ccccc23)c1,inactive,–
Cc1cc(=O)[nH]c(SCC(=O)N2c3ccccc3CC2C)n1 (stereo not given),inconclusive: -8.28%,–
COc1ccc(NC(=O)CSc2ccc3c(c2)OCCO3)cc1S(N)(=O)=O,–,"inconclusive: 32.6 µM [falling, partial curve, poor fit]"
CSc1nsc(SCC(=O)Nc2ccccc2C(=O)O)n1,–,"inconclusive: 22.4 µM [falling, partial curve]"
COc1ccc(C)cc1Nc1cc(C)nc2ncnn12,inconclusive: -9.55%,–
c1ccc(-n2nnnc2SCc2cccc3nsnc23)cc1,inconclusive: -3.62%,–
Cc1ccc(C(=O)/C=C/Nc2cccc([N+](=O)[O-])c2)o1,–,"inconclusive: 25.9 µM [falling, single point]"
Cc1cccc(C(=O)Oc2ccc(/C=N/NC(=O)c3cc(O)cc(O)c3)cc2)c1,–,"inconclusive: 22.4 µM [falling, single point]"
CCc1ccc(OCCOCC(O)CN2CCN(Cc3ccc(Cl)cc3)CC2)cc1 (stereo not given),inactive,–
COc1c2c(nc3ccccc13)OC(C(C)(O)COC(C)=O)C2 (stereo not given),inconclusive: 1.09%,–

# Reference: PubChem BioAssay AID493014 (National Center for Advancing Translational Sciences (NCATS), 2011)
